No constants are given. Whether binding was seen depends on the method and setting. In cells and extracts the contact can be indirect. Some binding calls cover weakened binding; strength is not graded here.
What was measured:
[1] = target: T1, Ets-1 (human (endogenous in HUVECs)) (UniProt P14921); assay: co-IP; cells treated with ox-LDL, lysed in RIPA; anti-Ets-1 or anti-CBP monoclonal antibody on protein A/G magnetic beads, 4 °C overnight; precipitates read by Western blot
T1 sequence: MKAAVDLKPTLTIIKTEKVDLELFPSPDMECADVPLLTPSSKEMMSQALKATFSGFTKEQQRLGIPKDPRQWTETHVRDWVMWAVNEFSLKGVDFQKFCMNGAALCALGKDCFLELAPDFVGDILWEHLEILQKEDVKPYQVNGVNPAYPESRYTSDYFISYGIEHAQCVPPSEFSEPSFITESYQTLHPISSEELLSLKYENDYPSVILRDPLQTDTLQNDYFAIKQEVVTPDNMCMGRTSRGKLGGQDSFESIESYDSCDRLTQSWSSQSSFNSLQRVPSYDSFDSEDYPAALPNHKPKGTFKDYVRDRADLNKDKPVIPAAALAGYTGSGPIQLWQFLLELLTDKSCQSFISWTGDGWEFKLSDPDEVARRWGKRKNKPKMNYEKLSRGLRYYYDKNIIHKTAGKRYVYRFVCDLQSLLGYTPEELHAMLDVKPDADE

Amino acid sequences for entries named in this document (tags omitted).
UniProt Q92793: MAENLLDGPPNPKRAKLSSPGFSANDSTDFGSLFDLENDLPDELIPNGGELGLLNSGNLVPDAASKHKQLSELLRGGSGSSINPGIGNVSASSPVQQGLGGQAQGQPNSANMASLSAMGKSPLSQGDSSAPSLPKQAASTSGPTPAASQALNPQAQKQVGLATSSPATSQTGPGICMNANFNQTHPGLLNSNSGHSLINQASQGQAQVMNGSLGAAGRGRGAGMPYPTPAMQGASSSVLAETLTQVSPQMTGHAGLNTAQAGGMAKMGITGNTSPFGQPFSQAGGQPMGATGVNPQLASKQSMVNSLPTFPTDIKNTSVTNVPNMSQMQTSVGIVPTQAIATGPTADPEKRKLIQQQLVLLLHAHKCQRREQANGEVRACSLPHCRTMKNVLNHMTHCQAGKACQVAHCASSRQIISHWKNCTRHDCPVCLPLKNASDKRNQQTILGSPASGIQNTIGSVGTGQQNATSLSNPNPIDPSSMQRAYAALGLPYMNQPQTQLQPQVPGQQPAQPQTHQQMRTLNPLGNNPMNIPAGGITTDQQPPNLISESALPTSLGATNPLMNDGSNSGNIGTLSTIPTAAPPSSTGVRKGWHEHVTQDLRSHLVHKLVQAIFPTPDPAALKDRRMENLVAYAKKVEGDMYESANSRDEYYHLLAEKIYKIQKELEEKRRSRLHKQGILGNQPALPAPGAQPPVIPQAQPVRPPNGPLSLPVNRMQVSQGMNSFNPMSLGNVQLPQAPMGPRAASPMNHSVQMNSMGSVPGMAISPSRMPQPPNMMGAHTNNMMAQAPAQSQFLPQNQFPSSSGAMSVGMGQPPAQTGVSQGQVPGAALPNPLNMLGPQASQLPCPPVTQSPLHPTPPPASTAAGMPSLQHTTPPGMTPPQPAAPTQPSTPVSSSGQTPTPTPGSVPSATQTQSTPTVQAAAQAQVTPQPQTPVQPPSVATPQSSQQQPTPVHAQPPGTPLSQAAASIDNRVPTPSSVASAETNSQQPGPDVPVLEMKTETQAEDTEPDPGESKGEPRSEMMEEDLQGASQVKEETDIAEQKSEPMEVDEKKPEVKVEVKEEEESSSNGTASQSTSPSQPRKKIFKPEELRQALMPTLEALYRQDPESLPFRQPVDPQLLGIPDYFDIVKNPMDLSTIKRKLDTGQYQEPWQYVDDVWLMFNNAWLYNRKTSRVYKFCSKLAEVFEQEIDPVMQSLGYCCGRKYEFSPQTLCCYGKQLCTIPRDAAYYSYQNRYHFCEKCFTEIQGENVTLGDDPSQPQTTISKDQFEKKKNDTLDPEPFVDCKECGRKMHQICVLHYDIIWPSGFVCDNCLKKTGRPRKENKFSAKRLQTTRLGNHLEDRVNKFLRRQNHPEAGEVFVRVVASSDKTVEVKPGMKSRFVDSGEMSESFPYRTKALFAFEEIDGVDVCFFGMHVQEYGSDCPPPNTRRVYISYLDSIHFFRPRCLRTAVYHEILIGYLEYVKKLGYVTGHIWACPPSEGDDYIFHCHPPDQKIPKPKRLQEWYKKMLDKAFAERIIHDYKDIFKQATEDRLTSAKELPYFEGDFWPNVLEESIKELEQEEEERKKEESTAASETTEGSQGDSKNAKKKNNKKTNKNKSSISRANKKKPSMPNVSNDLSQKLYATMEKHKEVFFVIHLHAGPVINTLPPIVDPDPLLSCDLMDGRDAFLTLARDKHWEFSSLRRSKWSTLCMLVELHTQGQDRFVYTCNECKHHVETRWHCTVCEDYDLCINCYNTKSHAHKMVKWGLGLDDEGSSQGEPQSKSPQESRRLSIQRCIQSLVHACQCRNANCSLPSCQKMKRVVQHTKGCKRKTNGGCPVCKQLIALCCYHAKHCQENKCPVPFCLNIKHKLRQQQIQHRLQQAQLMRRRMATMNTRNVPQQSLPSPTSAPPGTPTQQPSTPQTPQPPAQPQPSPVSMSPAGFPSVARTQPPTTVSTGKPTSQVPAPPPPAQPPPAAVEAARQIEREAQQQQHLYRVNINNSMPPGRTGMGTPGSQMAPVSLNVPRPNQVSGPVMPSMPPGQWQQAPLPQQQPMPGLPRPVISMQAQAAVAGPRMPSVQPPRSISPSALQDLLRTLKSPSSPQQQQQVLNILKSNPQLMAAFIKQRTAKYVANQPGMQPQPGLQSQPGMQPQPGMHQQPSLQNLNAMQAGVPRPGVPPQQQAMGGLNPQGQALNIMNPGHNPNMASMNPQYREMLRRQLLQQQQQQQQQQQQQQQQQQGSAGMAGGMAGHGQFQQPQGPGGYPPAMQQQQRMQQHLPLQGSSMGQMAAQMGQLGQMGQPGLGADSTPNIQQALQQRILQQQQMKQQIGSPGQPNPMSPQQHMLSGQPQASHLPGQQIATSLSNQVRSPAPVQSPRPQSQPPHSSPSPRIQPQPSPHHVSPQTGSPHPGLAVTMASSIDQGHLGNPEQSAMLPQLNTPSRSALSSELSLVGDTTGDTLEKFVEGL
UniProt P05412: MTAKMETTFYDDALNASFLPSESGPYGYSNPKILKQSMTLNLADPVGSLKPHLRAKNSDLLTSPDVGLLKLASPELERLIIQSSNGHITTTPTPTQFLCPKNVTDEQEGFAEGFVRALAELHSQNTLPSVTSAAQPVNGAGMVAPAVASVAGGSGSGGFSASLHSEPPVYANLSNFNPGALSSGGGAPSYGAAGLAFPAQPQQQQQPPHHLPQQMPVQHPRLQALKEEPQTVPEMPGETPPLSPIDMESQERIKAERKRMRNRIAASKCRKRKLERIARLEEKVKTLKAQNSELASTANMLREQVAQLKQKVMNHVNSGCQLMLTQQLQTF

[2] = target: CBP (human (endogenous in HUVECs)) (UniProt Q92793); assay: as above

binding [1]	binding [2]	Substance
binds		CBP (from UniProt Q92793 1-2442)
binds	binds	c-jun (from UniProt P05412 1-331)

Reference: PMC8579465
